Some of the results follow.
Compound: C1=CC2=C(C=CC(=C2)/C=C\3/C(=O)NC(=NCC4=CC=CS4)S3)N=C1
Experiment: log2 fold change, soluble protein after heating vs DMSO (PISA); higher = thermal stabilisation; K562 lysate, 10 uM; active = over 0.2 and 3.5 SD of the protein, either way, in both replicates (recomputed)
Procedure, shortened: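 Pellets of K562 cells were dounce-homogenised in PBS pH 7.4 with 1 mM MgCl2, and the crude extract was held at 1 mg/mL protein for a 30 min treatment with 10 μM compound. Aliquots were heated for 3 min over 48°C-58°C and pooled before NP-40 was added to 0.5% at 4°C. The supernatant from 21,000xg for 90 min was quantified by TMTpro 16plex LC-MS/MS with channel sums equalised. Values are reported from duplicates as log-two fold change in thermal stability relative to solvent controls.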

Chains of the proteins cited; added tags and fusions are not shown. Lines headed by an entry give the natural chain unless they say otherwise; changes in a name come on top.
UniProt Q8IZ69: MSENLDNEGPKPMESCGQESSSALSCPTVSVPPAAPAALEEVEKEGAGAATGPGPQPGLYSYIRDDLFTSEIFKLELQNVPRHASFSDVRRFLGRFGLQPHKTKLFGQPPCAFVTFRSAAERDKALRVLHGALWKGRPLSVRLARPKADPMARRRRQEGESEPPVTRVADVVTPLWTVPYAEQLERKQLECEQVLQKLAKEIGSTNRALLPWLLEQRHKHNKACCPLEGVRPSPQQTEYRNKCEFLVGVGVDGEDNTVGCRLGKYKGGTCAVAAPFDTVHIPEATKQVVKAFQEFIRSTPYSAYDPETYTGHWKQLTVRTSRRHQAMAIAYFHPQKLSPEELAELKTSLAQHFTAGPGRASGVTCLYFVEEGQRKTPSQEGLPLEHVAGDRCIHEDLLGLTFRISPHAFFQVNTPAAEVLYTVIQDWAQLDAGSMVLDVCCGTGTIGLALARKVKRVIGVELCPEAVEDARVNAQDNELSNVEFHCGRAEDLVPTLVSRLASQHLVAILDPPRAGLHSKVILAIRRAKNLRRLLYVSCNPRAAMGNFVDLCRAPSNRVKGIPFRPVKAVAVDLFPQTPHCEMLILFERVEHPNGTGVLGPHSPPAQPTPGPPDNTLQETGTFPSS
UniProt O75648: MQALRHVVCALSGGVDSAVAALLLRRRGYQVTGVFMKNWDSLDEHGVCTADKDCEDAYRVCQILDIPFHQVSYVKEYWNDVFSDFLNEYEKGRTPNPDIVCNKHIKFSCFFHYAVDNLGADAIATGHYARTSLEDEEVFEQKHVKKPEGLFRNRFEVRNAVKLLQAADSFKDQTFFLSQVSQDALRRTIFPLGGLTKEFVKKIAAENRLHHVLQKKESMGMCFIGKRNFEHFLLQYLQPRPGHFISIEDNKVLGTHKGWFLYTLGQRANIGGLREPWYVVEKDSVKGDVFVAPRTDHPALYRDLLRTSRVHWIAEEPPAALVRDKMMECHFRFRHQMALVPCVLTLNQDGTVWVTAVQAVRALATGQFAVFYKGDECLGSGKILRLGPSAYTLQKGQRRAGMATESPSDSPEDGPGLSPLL
UniProt Q15714: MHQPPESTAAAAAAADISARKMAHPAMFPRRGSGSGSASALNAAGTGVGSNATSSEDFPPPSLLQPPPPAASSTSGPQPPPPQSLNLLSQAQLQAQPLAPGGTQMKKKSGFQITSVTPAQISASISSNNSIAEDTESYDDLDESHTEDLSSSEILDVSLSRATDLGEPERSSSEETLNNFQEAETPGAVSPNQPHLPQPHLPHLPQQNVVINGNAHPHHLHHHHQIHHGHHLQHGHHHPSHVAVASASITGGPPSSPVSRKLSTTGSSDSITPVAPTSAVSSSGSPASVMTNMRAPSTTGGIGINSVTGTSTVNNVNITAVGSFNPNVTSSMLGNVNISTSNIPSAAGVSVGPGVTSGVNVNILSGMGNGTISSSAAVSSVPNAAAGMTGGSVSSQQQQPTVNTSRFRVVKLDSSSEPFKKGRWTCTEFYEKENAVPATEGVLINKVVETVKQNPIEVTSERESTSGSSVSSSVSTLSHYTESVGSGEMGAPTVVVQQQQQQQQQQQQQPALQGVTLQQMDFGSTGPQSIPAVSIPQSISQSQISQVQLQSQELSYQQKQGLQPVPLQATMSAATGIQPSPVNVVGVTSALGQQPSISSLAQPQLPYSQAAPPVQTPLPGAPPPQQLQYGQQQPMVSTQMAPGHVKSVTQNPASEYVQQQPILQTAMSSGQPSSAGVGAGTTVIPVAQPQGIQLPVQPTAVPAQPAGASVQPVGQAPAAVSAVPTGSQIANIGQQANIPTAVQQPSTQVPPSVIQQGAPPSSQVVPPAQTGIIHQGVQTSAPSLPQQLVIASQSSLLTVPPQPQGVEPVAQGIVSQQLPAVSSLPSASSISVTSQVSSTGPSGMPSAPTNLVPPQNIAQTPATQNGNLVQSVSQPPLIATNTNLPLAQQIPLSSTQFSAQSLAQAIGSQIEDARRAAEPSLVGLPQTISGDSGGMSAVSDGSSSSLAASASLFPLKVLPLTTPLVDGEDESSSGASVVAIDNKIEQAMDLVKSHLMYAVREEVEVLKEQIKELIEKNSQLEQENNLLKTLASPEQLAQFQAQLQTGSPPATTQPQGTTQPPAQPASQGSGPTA
UniProt Q15642: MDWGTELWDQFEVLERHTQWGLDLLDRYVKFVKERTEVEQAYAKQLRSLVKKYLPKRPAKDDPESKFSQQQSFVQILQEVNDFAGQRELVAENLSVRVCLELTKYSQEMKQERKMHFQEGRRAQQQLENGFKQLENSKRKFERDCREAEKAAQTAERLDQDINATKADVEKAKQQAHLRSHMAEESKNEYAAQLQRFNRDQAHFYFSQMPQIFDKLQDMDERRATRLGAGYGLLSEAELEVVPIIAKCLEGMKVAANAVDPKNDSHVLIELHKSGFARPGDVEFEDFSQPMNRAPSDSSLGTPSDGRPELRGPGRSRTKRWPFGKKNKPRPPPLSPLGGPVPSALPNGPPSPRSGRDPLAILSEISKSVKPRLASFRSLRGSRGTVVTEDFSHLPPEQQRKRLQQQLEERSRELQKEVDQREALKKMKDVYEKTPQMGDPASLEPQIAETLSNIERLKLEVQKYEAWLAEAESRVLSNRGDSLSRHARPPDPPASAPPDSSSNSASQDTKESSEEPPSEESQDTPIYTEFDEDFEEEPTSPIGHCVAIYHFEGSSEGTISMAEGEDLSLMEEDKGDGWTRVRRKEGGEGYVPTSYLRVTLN
UniProt Q9NXH9: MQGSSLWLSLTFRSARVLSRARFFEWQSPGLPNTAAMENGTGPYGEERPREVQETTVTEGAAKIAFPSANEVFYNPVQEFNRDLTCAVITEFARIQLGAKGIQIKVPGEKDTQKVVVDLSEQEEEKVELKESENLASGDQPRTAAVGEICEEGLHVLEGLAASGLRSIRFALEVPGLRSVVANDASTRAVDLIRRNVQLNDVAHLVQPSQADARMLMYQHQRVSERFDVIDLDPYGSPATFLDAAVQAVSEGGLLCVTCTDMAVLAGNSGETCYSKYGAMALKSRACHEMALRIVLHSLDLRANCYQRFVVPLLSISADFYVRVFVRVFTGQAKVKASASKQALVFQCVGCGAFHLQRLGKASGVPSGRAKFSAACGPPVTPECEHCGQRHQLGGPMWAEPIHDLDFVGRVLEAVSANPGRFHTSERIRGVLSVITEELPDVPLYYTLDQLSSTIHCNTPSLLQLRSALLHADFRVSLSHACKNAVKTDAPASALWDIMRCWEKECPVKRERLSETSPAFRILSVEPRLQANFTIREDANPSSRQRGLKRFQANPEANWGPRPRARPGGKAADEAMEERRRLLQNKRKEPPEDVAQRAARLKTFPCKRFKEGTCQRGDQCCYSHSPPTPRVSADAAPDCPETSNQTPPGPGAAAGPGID
UniProt Q96DX7: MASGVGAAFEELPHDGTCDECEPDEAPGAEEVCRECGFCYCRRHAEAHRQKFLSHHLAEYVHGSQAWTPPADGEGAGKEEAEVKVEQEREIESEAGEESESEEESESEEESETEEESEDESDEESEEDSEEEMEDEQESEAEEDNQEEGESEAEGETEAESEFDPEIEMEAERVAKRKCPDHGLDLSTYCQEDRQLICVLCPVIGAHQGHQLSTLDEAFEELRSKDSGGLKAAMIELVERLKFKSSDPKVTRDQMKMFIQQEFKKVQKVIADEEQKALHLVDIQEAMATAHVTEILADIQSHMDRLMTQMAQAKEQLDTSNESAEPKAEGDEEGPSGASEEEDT
UniProt Q9Y2L5: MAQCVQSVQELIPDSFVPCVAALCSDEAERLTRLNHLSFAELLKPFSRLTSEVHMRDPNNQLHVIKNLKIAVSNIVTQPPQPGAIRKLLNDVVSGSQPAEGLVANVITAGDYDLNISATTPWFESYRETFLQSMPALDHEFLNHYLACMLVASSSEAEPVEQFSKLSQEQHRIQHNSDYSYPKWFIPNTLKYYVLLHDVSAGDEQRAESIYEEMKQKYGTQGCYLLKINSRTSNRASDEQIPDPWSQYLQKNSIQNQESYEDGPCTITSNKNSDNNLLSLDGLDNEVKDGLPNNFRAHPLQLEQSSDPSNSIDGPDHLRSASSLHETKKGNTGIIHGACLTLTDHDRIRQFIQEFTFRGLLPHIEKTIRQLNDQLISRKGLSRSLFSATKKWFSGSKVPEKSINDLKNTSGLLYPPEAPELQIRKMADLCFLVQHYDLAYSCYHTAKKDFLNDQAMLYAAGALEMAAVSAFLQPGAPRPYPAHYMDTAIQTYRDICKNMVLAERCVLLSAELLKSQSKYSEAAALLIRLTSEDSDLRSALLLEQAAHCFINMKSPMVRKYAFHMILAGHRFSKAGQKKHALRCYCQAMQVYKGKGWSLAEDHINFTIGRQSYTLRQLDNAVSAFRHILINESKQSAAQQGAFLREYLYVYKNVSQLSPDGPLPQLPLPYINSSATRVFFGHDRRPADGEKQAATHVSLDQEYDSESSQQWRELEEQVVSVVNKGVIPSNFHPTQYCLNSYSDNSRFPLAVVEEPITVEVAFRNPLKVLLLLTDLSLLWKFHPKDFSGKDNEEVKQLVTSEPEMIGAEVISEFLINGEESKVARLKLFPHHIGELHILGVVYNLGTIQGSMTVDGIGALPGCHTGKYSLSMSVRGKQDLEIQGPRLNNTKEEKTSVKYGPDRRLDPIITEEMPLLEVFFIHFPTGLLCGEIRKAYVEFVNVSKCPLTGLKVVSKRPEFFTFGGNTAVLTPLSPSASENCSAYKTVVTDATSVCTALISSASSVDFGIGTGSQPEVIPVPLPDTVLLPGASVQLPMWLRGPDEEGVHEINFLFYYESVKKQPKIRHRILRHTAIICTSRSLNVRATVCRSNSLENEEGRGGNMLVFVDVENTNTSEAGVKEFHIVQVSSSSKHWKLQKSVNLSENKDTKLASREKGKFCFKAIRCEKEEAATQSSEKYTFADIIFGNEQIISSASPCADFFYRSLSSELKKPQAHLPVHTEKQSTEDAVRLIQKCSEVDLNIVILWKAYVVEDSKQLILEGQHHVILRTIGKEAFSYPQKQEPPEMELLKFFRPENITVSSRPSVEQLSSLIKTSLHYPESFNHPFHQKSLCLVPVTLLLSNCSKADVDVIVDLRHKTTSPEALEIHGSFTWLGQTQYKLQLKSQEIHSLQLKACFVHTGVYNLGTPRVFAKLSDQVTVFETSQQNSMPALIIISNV
UniProt Q9BSV6: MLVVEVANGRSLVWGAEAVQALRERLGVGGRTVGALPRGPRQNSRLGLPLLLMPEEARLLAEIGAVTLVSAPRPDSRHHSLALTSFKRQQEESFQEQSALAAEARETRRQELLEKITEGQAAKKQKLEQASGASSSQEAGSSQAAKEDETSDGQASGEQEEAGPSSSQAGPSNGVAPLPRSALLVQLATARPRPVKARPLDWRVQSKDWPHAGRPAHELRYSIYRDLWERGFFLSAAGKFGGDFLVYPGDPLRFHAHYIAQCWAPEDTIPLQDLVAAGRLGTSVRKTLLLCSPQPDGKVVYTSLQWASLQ
UniProt O43617, whole entry, looked up: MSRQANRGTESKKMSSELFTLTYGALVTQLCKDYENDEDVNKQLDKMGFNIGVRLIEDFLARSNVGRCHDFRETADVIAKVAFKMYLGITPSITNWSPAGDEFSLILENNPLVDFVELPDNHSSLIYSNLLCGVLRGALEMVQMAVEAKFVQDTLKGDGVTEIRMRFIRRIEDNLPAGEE
UniProt Q8WWH5: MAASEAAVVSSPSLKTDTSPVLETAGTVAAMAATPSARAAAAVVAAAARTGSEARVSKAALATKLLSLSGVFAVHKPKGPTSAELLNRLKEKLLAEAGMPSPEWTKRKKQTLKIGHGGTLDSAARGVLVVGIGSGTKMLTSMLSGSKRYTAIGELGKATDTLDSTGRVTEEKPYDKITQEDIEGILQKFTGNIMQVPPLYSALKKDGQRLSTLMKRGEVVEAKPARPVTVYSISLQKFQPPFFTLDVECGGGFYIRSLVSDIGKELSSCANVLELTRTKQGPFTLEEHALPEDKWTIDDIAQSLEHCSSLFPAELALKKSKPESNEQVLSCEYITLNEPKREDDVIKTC
UniProt O14545: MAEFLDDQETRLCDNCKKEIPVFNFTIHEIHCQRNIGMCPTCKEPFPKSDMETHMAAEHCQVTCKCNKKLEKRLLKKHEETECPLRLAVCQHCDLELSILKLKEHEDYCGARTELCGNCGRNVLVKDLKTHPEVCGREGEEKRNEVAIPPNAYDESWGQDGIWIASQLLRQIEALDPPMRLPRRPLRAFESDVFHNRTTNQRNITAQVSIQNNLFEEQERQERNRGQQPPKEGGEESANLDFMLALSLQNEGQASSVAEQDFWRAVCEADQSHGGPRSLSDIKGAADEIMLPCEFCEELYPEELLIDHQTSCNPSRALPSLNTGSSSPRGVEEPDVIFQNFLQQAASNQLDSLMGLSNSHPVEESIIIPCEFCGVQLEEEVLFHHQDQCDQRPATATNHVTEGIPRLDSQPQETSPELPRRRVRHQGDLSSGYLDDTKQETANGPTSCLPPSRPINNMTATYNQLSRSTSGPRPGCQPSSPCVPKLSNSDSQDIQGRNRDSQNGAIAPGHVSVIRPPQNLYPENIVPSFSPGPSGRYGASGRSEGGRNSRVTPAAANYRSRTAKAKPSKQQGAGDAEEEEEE

log2 fold change, inactive:
TRAP1 (UniProt Q12931) -0.041, TTI1 (UniProt O43156) 0.003, TRNT1 (UniProt Q96Q11) 0.04, TSEN54 (UniProt Q7Z6J9) 0.073, TSN (UniProt Q15631) -0.007, TRMT2A (UniProt Q8IZ69) 0.012, TTC33 (UniProt Q6PID6) 0.042, TRMU (UniProt O75648) 0.067, TSC22D1 (UniProt Q15714) -0.014, TTC19 (UniProt Q6DKK2) 0.004, TRIM11 (UniProt Q96F44) -0.002, TRIP10 (UniProt Q15642) 0.002, TRIM24 (UniProt O15164) 0.025, TRIM28 (UniProt Q13263) -0.008, TRMT1 (UniProt Q9NXH9) -0.006, TRIM44 (UniProt Q96DX7) -0.037, TRAPPC6A isoform 2 (UniProt O75865) 0.049, TRIP10 isoform 2 (UniProt Q15642) 0.036, TRIM32 (UniProt Q13049) 0.122, TSG101 (UniProt Q99816) -0.023, TSTA3 (UniProt Q13630) -0.044, TRIP6 (UniProt Q15654) 0.002, TTLL12 (UniProt Q14166) 0.036, TRAPPC8 (UniProt Q9Y2L5) -0.019, TRAF4 (UniProt Q9BUZ4) -0.079, TSEN34 (UniProt Q9BSV6) 0, TRAPPC3 (UniProt O43617) 0.039, TRIM23 (UniProt P36406) 0.014, TRAPPC9 isoform 2 (UniProt Q96Q05) 0.006, TRUB1 (UniProt Q8WWH5) 0.034, TRIP4 (UniProt Q15650) 0.043, TRAFD1 (UniProt O14545) 0.026, TRAPPC6B (UniProt Q86SZ2) -0.02

— the supplement of paper PMC10849652
